Here are results for 2 compounds from article PMC5862892, “Near-native, site-specific and purification-free protein labeling for quantitative protein interaction analysis by MicroScale Thermophoresis” (Scientific Reports, 2018).

In this data set the test system is RED-tris-NTA/His6-peptide interaction. In words: Buffer additive screen: His6-peptide titrated against RED-tris-NTA with additives in PBST. Type of data set: binding.

In the case of `[Co+2]` [Co(II)], under “tested at 100 nM, ions compete for binding with tris-NTA fluorophores”, the “Maximum allowed assay concentration (in words)” value was “preloaded protein only”.
With `Cl.O=C(O)CCP(CCC(=O)O)CCC(=O)O` [TCEP, tris(2-carboxyethyl)phosphine hydrochloride], under “highest additive concentration that did not alter the Kd of His6-peptide/RED-tris-NTA, PBST”, the “Maximum allowed assay concentration” value is reported as 0.5 mM.
